Literature values, collected in US20060074100A1, “Histone deacetylase inhibitors for the treatment of ocular neovascular or edematous disorders and diseases” (priority 2002, published 2006).

Test system: VEGF-induced neovascularization

O=C(CCCCCCC(=O)Nc1ccccc1)NO [SAHA, suberoylanilide hydroxamic acid]
inhibition of VEGF-induced neovascularization: can inhibit VEGF-induced neovascularization
